According to paper PMC9989923:
These are yes or no findings as the source states them, for the method shown. In cells and extracts the contact can be indirect. Some results given as binding are weak or reduced against the parent protein; the word gives no strength.

By UniProt entry, the sequences of proteins in these tests, tags left out.
UniProt P0DMV8: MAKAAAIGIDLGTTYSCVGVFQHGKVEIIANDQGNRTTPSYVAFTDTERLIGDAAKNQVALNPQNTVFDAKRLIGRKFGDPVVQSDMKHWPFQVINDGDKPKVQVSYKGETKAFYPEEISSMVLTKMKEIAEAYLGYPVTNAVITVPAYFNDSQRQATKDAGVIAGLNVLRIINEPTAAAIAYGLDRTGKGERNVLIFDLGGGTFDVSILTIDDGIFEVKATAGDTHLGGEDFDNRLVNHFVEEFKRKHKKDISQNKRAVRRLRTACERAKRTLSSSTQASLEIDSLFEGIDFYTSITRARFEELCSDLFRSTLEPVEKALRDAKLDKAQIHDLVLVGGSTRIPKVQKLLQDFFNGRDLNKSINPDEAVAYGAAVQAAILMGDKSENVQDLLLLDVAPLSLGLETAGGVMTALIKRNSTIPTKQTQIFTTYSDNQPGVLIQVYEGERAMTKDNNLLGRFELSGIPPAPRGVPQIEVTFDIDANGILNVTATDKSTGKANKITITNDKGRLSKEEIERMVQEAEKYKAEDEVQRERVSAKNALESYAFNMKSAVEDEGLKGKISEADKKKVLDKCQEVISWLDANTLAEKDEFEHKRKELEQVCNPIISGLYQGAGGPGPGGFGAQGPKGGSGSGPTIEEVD
UniProt P25685: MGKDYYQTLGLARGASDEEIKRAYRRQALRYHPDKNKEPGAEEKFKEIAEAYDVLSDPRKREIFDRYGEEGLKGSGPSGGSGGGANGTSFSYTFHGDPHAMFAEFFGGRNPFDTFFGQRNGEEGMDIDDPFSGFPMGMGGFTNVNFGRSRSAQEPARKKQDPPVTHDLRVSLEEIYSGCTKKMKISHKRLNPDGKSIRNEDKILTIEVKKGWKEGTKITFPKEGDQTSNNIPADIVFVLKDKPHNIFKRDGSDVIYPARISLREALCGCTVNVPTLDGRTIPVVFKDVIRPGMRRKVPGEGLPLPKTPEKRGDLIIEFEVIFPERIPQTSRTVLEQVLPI

Target: HSP70‐1A (human (endogenous in PC3 and HuH7)) (UniProt P0DMV8)
Assay: co-IP; whole-cell extracts (300 μg) of PC3 and HuH7 cells treated with GO-Y030 (2 μM) or dimethylsulfoxide for 24 h; precipitated with anti-HSP70/HSP72 mAb clone C92F3A-5 and Protein A/G PLUS-Agarose at 4 °C; immunoblot; isotype control mouse IgG1

dnaJ‐B1 (from UniProt P25685 1-340) was tested, and the binding was “binds”.
